From patent US20250222069A1 (ACCELERON PHARMA, published 2025) come the findings set out here.

Results are given in words; binding and its absence hold for the method and conditions named. Some entries that bind do so weakly or less than the wild type. Where a sequence is shown, tags or fusion partners need not be part of it.

The target of this test is T1, GDF11 (UniProt O95390 299-407).
T1 construct: also called BMP11
T1 sequence (looked up): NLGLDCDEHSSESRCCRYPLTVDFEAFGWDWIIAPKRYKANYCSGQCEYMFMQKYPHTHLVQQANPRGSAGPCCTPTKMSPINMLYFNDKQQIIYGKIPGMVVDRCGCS
The test is described as follows: Biacore; ligand coupled to chip, receptor flowed over (table reproduced from WO2006/012627). Background: In SPR one partner is held on a chip, and binding of the other changes the refractive index at the surface.

B1: Soluble ActRIIB-Fc WT (64A) (Fc fusion, UniProt Q13705 19-119, looked up, not shown: a dimerising Fc or GST)
chain: SGRGEAETRECIYYNANWELERTNQSGLERCEGEQDKRLHCYASWANSSGTIELVKKGCWLDDFNCYDRQECVATEENPQVYFCCCEGNFCNERFTHLPEA
Take B1: the binding result is listed as “binds”.
